# Results as given in the supplement of paper PMC9135407.
# Where “and” joins values, the source holds several entries; their conditions need not be identical. Equal entries are not always repeated. Structures can show the parent of a compound that is named as a salt. ± gives the standard deviation of the averaged measurements. The list shows a part of the results. Part of the spread comes from offsets between plates or batches.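 Assay uses culture-activated primary human stellate myofibroblasts; lipid droplet recovery indicates inactivation. Measured: proportion of Hoechst-counted cells over a plate-specific Bodipy cutoff, duplicate wells, DMSO and nortriptyline as per-plate negative and positive controls. A hit scores, control-normalized, above the plate's top-tenth-percentile nortriptyline wells or ranks among its three best wells. Final well concentrations not reported.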
# Tested on: primary human hepatic stellate cells (donor 1)
# Assay: percent Bodipy-positive cells; higher = more lipid droplet accumulation
# Details: 48 h
# [1] = library stock concentration: 10 mM
# [2] = library stock concentration: 400 uM
# [3] = library stock concentration: 2 mM
# [4] = library stock concentration: 3.33 mM
# [5] = library stock concentration: 1 mM
# [6] = library stock concentration: 80 uM
smiles,measurement,setting,value
CC(=O)OCC(=O)[C@@]12OC3(CCCC3)O[C@@H]1C[C@H]1[C@@H]3CCC4=CC(=O)C=C[C@]4(C)[C@@]3(F)[C@@H](O)C[C@@]12C [Amcinonide],percent Bodipy-positive cells,library stock concentration: 4 mM,5.79 ± 1.5%
same,percent Bodipy-positive cells,[1],26.1 ± 5%
CC(=O)OCC(=O)[C@@]12OC3(CCCC3)O[C@@H]1C[C@H]1[C@@H]3CCC4=CC(=O)C=C[C@]4(C)[C@@]3(F)[C@@H](O)C[C@@]12C,percent Bodipy-positive cells,[1],18.8 ± 5.5%
CC(=O)Nc1ccc([C@H](C)C(=O)Nc2ncc(C(C)C)s2)cc1,percent Bodipy-positive cells,[2],24.2 ± 0.59%
same,percent Bodipy-positive cells,[3],53 ± 1.9%
same,percent Bodipy-positive cells,[1],66.5 ± 1.1%
COc1cc2ncn(-c3cc(OCc4ccccc4S(C)(=O)=O)c(C#N)s3)c2cc1OC [IKK-3 Inhibitor IX],percent Bodipy-positive cells,[4],8.24 ± 1.6%
C=COCC(F)(F)F,percent Bodipy-positive cells,[1],39.5 ± 4.8%
Cc1oc(=O)oc1CN1CCN(c2cc3c(cc2F)c(=O)c(C(=O)O)c2n3C(C)S2)CC1 (stereo unspecified),percent Bodipy-positive cells,[1],19.9 ± 3.3%
C/C(O)=C(\C#N)C(=O)Nc1ccc(C(F)(F)F)cc1 [Teriflunomide],percent Bodipy-positive cells,[4],6.48 ± 1.8%
same,percent Bodipy-positive cells,[1],48.1 ± 6.2%
COc1nc(C)cnc1NS(=O)(=O)c1cccnc1-c1ccc(-c2nnco2)cc1 [Zibotentan (ZD4054)],percent Bodipy-positive cells,[4],12.4 ± 3.5%
same,percent Bodipy-positive cells,[1],15.2 ± 4%
Nc1ccccc1NC(=O)CCCCCCC(=O)Nc1ccccc1,percent Bodipy-positive cells,[5],11 ± 2.2%
Cn1cc(C2=C(c3cn(CCCSC(=N)N)c4ccccc34)C(=O)NC2=O)c2ccccc21 [Bisindolylmaleimide IX (mesylate)],percent Bodipy-positive cells,[5],17.7 ± 4.4%
Cn1cc(C2=C(c3cn(CCCSC(=N)N)c4ccccc34)C(=O)NC2=O)c2ccccc21 [Ro 31-8220 mesylate],percent Bodipy-positive cells,[1],46.7 ± 4.6%
Cn1cc(C2=C(c3cn(CCCSC(=N)N)c4ccccc34)C(=O)NC2=O)c2ccccc21,percent Bodipy-positive cells,[6],15.2 ± 1.1%
same,percent Bodipy-positive cells,[2],26.4 ± 4%
same,percent Bodipy-positive cells,[3],21 ± 5.3%
same,percent Bodipy-positive cells,[4],10.4 ± 4.2%
same,percent Bodipy-positive cells,[1],95.8 ± 4.2%
same,percent Bodipy-positive cells,library stock concentration: 10.9 mM,99.51 ± 0.69%
Cn1cc(C2=C(c3cn(CCCSC(=N)N)c4ccccc34)C(=O)NC2=O)c2ccccc21 [Ro 31-8220 Mesylate],percent Bodipy-positive cells,[4],21.3 ± 1.9%
same,percent Bodipy-positive cells,[1],97.8 ± 2.5%
C[C@@H]1O[C@@H](O[C@H]2[C@H](Oc3cc(O)c4c(c3)O[C@H](c3ccc(O)cc3)CC4=O)O[C@H](CO)[C@@H](O)[C@@H]2O)[C@H](O)[C@H](O)[C@H]1O [Naringin hydrate],percent Bodipy-positive cells,,28.9 ± 11%
C[C@@H]1O[C@@H](O[C@H]2[C@H](Oc3cc(O)c4c(c3)O[C@H](c3ccc(O)cc3)CC4=O)O[C@H](CO)[C@@H](O)[C@@H]2O)[C@H](O)[C@H](O)[C@H]1O [Naringin],percent Bodipy-positive cells,[4],6.39 ± 1.1%
same,percent Bodipy-positive cells,[1],19.9 ± 17%
N[C@@H](CC(=O)N1CCn2c(nnc2C(F)(F)F)C1)Cc1cc(F)c(F)cc1F [Sitagliptin],percent Bodipy-positive cells,library stock concentration: 4.9 mM,19.7 ± 13%
N[C@@H](CC(=O)N1CCn2c(nnc2C(F)(F)F)C1)Cc1cc(F)c(F)cc1F [Sitagliptin phosphate monohydrate],percent Bodipy-positive cells,[4],8.29 ± 2.8%
same,percent Bodipy-positive cells,[1],13.11 ± 0.028%
"CC1(C)C(=O)N(CCN2CCC(C(=O)c3ccc(F)cc3)CC2)c2ccccc21 [LY-310,762 hydrochloride]",percent Bodipy-positive cells,[1],48.4 ± 7.9%
CC(C)(C)OC(=O)N[C@H]1CCCCC/C=C\[C@@H]2C[C@@]2(C(=O)NS(=O)(=O)C2CC2)NC(=O)[C@@H]2C[C@@H](OC(=O)N3Cc4cccc(F)c4C3)CN2C1=O [Danoprevir (ITMN-191)],percent Bodipy-positive cells,[4],4.36 ± 2.2%
same,percent Bodipy-positive cells,[1],16.7 ± 3.3%
CCN(CC)CC1CCCCN1CC(=O)N1c2ccccc2C(=O)Nc2cccnc21 (stereo unspecified),percent Bodipy-positive cells,[1],5.57% and 8.04%
CC#CCC(C)[C@H](O)/C=C/[C@@H]1[C@H]2C/C(=C/CCCC(=O)O)C[C@H]2C[C@H]1O (stereo partly drawn) [5-cis Iloprost],percent Bodipy-positive cells,[5],20.3 ± 2.1%
NC(=O)Nc1sc(-c2ccc(F)cc2)cc1C(N)=O,percent Bodipy-positive cells,[6],12.7 ± 4%
same,percent Bodipy-positive cells,[2],10.8 ± 5%
same,percent Bodipy-positive cells,[3],12.5 ± 2.3%
same,percent Bodipy-positive cells,[4],13.7 ± 7.5%
same,percent Bodipy-positive cells,[1],17.9% and 9.41% and 6.7%
N=C(N)c1ccc(N=NNc2ccc(C(=N)N)cc2)cc1,percent Bodipy-positive cells,[1],43.7 ± 2.6%
N=C(N)c1ccc(N=NNc2ccc(C(=N)N)cc2)cc1 [Diminazene Aceturate],percent Bodipy-positive cells,[4],5.07 ± 2.5%
same,percent Bodipy-positive cells,[1],26.3 ± 12%
O=C(O)CCC/C=C\C[C@@H]1C(=O)C[C@@H](O)[C@@H]1/C=C/[C@@H](O)CC1CCCCC1 [8-iso-16-cyclohexyl-tetranor Prostaglandin E2],percent Bodipy-positive cells,[5],11.7 ± 3.6%
C[C@H](CCC(=O)O)[C@H]1CC[C@H]2[C@@H]3C[C@H](O)[C@@H]4C[C@H](O)CC[C@]4(C)[C@H]3CC[C@]12C [Hyodeoxycholic acid (HDCA)],percent Bodipy-positive cells,[4],7.02 ± 2.6%
same,percent Bodipy-positive cells,[1],13.4 ± 3.2%
COc1cc2c(cc1O)[C@@H](Cc1ccc(O)cc1)[N+](C)(C)CC2 [Magnocurarine iodide],percent Bodipy-positive cells,[1],21.2 ± 3.3%
O=C(Nc1ccccc1)OCC(CN1CCCCC1)OC(=O)Nc1ccccc1 (stereo unspecified) [Diperodon hydrochloride],percent Bodipy-positive cells,,73.6 ± 4.8%
COc1cc2ncnc(Sc3nnc(C)s3)c2cc1OC,percent Bodipy-positive cells,[1],96 ± 2.5%
CO/N=C(\C(=O)N[C@@H]1C(=O)N2C(C(=O)O)=C(CSC(=O)c3ccco3)CS[C@H]12)c1csc(N)n1,percent Bodipy-positive cells,[1],28.1 ± 7.2%
CO/N=C(\C(=O)N[C@@H]1C(=O)N2C(C(=O)O)=C(CSC(=O)c3ccco3)CS[C@H]12)c1csc(N)n1 [Ceftiofur HCl],percent Bodipy-positive cells,[4],6.1 ± 0.44%
same,percent Bodipy-positive cells,[1],7.73 ± 0.44%
N[C@@H]1CCN(O)C1=O,percent Bodipy-positive cells,[1],7.89 ± 0.43%
CC(=O)Nc1ccc(OCC(O)CNC(C)C)cc1 (stereo unspecified) [Practolol],percent Bodipy-positive cells,,27.8 ± 2%
same,percent Bodipy-positive cells,library stock concentration: 7.5 mM,7.78 ± 2.8%
O=C1NN(C(=O)Nc2ccc(Br)cc2)[C@@H](c2ccccc2)[C@@H]1c1ccccc1,percent Bodipy-positive cells,[1],11.2 ± 1.1%

# An excerpt of these results, with tabs.
smiles	measurement	setting	value
C=COCC(F)(F)F	percent Bodipy-positive cells	[1]	39.5 ± 4.8%
Cn1cc(C2=C(c3cn(CCCSC(=N)N)c4ccccc34)C(=O)NC2=O)c2ccccc21	percent Bodipy-positive cells	[1]	95.8 ± 4.2%
N[C@@H](CC(=O)N1CCn2c(nnc2C(F)(F)F)C1)Cc1cc(F)c(F)cc1F [Sitagliptin phosphate monohydrate]	percent Bodipy-positive cells	[4]	8.29 ± 2.8%
